Results from publication PMC9796023 (Diabetes, Obesity & Metabolism, 2022).

Assay: general procedure: Fmoc solid-phase peptide synthesis
Details: whole synthesis, chromatographic purity; ultra-high-performance liquid chromatography-high-resolution mass spectrometry

PEPTIDE1{H.[Aib].E.G.T.F.T.S.D.V.S.S.Y.L.E.G.Q.A.A.K.E.F.I.A.W.L.V.R.G.R.G.L}|PEPTIDE2{[ODDA].[gGlu].[Aib].[AEEA]}$PEPTIDE1,PEPTIDE2,20:R3-4:R2$$$V2.0
final purity (method not given): approximately 97%

HELM strings list residues between dots; [ac] is acetyl, [am] amide, other brackets name non-standard units.
